# PubChem BioAssay AID1224830 | NIAID – 2016
# Test: 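Host factors that control LPS-induced TNF expression in human macrophages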 (primary screen)
# Cell system: human THP-1 monocytic leukaemia cells, TNF dual-luciferase reporter clone, PMA-differentiated to macrophage-like cells
# Knock-down reagent: siRNA pool against human genes, 50 nM
# Time to read-out: LPS for 4 h, given about 3 days after siRNA transfection
# Conditions: bacterial LPS (TLR4 ligand), 10 ng/ml
# Measurement: 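Ratio of firefly to renilla light, scaled to the plate median and expressed as a robust z-score per replicate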
# Direction: TNF reporter robust z-score: higher = stronger TNF reporter response to LPS
# Rule for the call: 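Each well counts as active if its z-score is over 2.8 or under -1.5; controls are left without a call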
# The whole screen tested about 18,000 reagents; this is an unselected part. Of all reagents, about 2,900 (16%) were called active. 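Calls are made per well; low scores hint the gene aids the LPS response, high scores that it dampens it.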 Repeated entries: four replicate wells of each siRNA pool.
gene symbol,TNF reporter robust z-score,outcome
TM9SF1,-0.16,inactive
TM9SF1,0.53,inactive
TM9SF1,0.71,inactive
TM9SF1,0.07,inactive
MAP2K3,0.18,inactive
MAP2K3,0.46,inactive
MAP2K3,-0.32,inactive
ZSCAN5A,-0.78,inactive
ZSCAN5A,1.09,inactive
ZSCAN5A,0.6,inactive
ZSCAN5A,0.38,inactive
OR1L8,-1.01,inactive
OR1L8,-0.83,inactive
OR1L8,-0.12,inactive
OR1L8,0.59,inactive

An excerpt taken from the entries so far:
gene symbol,TNF reporter robust z-score,outcome
ZSCAN5A,0.6,inactive
ZSCAN5A,0.38,inactive
OR1L8,-1.01,inactive
OR1L8,-0.83,inactive

Additional reagents:
gene symbol,TNF reporter robust z-score,outcome
RGS14,1.71,inactive
RGS14,1.9,inactive
RGS14,1.15,inactive
RGS14,0.45,inactive
TRHDE,1.64,inactive
TRHDE,0.73,inactive
TRHDE,-0.27,inactive
TRHDE,-1.14,inactive
CA7,-0.29,inactive
CA7,-1.08,inactive
CA7,-0.1,inactive
CA7,-0.53,inactive
CDC14A,0.38,inactive
CDC14A,0.74,inactive
CDC14A,0.08,inactive
CDC14A,0.41,inactive
DNAI3,-0.78,inactive
DNAI3,-0.23,inactive
DNAI3,-0.29,inactive
DNAI3,0.17,inactive
UPK2,0.78,inactive
UPK2,1.43,inactive
UPK2,-0.52,inactive
UPK2,-0.74,inactive
MBLAC2,1.46,inactive
MBLAC2,-0.79,inactive
MBLAC2,-1.3,inactive
MBLAC2,-0.57,inactive
PDE3A,2.33,inactive
PDE3A,2.78,inactive
PDE3A,1.21,inactive
PDE3A,2.07,inactive
